Measurements as given in PubChem BioAssay AID1259415 (National Center for Advancing Translational Sciences (NCATS), 2018).
Among all 410,000 compounds or so, about 18,000 (4.4%) were called active. This list was built around the results that the source calls inconclusive (neither active nor inactive); the mix of calls is not that of the screen. Cut-off read from the data, not from the text of the source: active = activity change below about -60%; inconclusive = no clear call, values can overlap the other calls; inactive = above about -39%.

test: qHTS Assay for inhibitors of the human cytomegalovirus (HCMV); conditions: HFF cells, HCMV-luciferase reporter, 72 h; at 57.5 µM; active compounds read low
Description: NCGC Assay Overview: Infection with human cytomegalovirus (HCMV) continues to pose significant threats for pregnant women and immunocompromised hosts. HCMV causes serious morbidity and mortality in transplant recipients, and congenital HCMV is the leading infectious cause of mental retardation and deafness in children. In the 1990s, the annual costs associated with the disease burden of congenital CMV were estimated at around $2 billion. A HCMV vaccine is not available yet and HCMV therapies result in intolerable side effects and emergence of drug resistant viruses. […] Towards this goal we have developed and characterized a luciferase HCMV reporter that was initially used in 96 well plates and then optimized to 1536-well plates for utilization in screening of the MLSMR collection, the NGCG diversity collection and the NCGC Pharmaceutical Collection of approved and investigational drugs.
NCGC Assay Protocol Summary:
This is a cell-based assay for HCMV inhibition in HFFs cells. The screening used 2 compound doses and the HCMV-luciferase at MOI of 1 PFU/cell. Cells were treated and infected with HCMV. At 72 h post infection cell lysates were collected and luciferase activity was determined using the Glomax-Multi + Detection System (Promega, Madison, WI). Data were normalized to the controls for basal activity (buffer only) and known HCMV inhibitors Salinmoycin.
1536-well assay protocol for the assay:
(1) Add 3 ul CMV/HFF cell culture. 1000 cells/well in DMEM nirmal media.
(2) Incubate 16 hr at 37C.
(3) Add 23 nl control compound, 10uM of Salinomycin.
(4) Add 23 nl compounds in DMSO solution.
(5) Add 3 ul CMV suspension. Final 1 puf/ul, Virus stock 2000pfu/ul
(6) Incubate 72 hrs at 37C.
(7) Add 4 ul OneGlo Luc Reagent.
(8) Incubate 5 min at room temperature.
% is set by controls: 0 for no effect and ±100 for the full control effect.

| Structure (SMILES) | activity change, negative = inhibition |
| --- | --- |
| Cc1ccc2nc(N3CCN(c4cccc(Cl)c4)CC3)c3nnnn3c2c1 | active: -71.6% |
| Cc1cccn2c(=O)c(/C=C(\C#N)C(=O)NC3CCS(=O)(=O)C3)c(Oc3ccccc3Cl)nc12 (stereo not given) | inactive: 59.4% |
| CCCCc1c(-c2ccccc2OC)ncn1CCc1ccccc1Cl | inconclusive: -52.8% |
| CSc1ccc(Cl)c(C(=O)Nc2ccc(Cl)cn2)c1 | inconclusive: -47.2% |
| Cc1ccccc1C(=O)Nc1nc2nc(C)c(C)c(=O)n2[nH]1 | inactive: 73.3% |
| S=C(NCCc1ccc(Cl)cc1)NC1CCCC1 | active: -69.4% |
| O=C(c1ccc2c(c1)N(Cc1ccc(F)cc1Cl)C(=O)c1ccccc1S2)N1CCC2(CC1)OCCO2 | active: -68.2% |
| CCc1nnc(NC(=O)CSc2nc(C)c3c(c2C#N)CCCC3)s1 | inactive: 56.3% |
| CCN(CC(=O)N1CCN(c2ccccc2)CC1)S(=O)(=O)c1ccc(C)cc1 | inconclusive: -50.2% |
| O=C(Nc1ccc(Cl)c(S(=O)(=O)N2CCOCC2)c1)C1CCC1 | inactive: 6.5% |
| Cc1ccc(CNC(=O)CNS(=O)(=O)c2cccc3nsnc23)cc1 | inconclusive: -40.7% |
| COc1ccc(NC(=O)Cn2c(=O)cc(C)c3c(C)nn(-c4cccc(Cl)c4C)c32)cc1OC | active: -103% |
| CCCCC(=O)NC(c1cccc([N+](=O)[O-])c1)c1ccc2cccnc2c1O (stereo not given) | active: -103% |
| CCOC(=O)C1CCCN(C(=O)Cn2nc(C)c3c(C)n(-c4ccccc4)nc3c2=O)C1 (stereo not given) | inconclusive: -48.2% |
| O=C(CSc1n[nH]c(=O)[nH]c1=O)c1cccc([N+](=O)[O-])c1 | inconclusive: -41.5% |
| Cc1cccc(N2CCC(N=CN(C)C)=N2)c1 | inconclusive: -52.7% |
| Cc1ccc(C)c(Nc2cc(C(=O)NCCCN(C)C3CCCCC3)c3ccccc3n2)c1 | inconclusive: -42.3% |
| N#Cc1ccc(NC(=O)c2cc(=O)c3ccccc3o2)cc1 | inconclusive: -51.8% |
| CC1CC(C)CN(CCC(=O)Nc2ccc3c(c2)CCC3)C1 (stereo not given) | inconclusive: -42.8% |
| CN(C)c1cccc(Nc2nccc3[nH]c(-c4cccc(F)c4)cc23)c1 | inconclusive: -42.5% |
| Cc1cc(C)c2nc(N3CCC(C(=O)N4CCN(c5ncccn5)CC4)CC3)sc2c1 | inactive: -33% |
| COc1ccc(/C=C/C(=O)NC2CC3CCC2C3)cc1 (stereo not given) | inactive: 34.2% |
| CCCCN(CC)Cc1ccc(CNC(=S)Nc2ccc(C)cc2Cl)o1 | inconclusive: -49.8% |
| O=C(NCCC(=O)N1CCCC(C(F)(F)F)C1)c1ccc(Br)cc1 (stereo not given) | inconclusive: -42.1% |
| C[C@@H]1CN([C@H](C)CO)C(=O)CCCn2nncc2CO[C@H]1CN(C)Cc1cccc2c1OCCCO2 | inactive: 8.31% |
| CCNC(=O)COc1ccc(OCc2ccccc2)cc1 | inactive: 17.5% |
| Cc1ccc2[nH]c3c(NCCN4CCOCC4)ncnc3c2c1 | inactive: -22.7% |
| CCCCNC(=O)C(NC(=O)c1ccc2ccccc2c1)C(=O)c1ccccc1 (stereo not given) | active: -63.8% |

| Structure (SMILES) | activity change, negative = inhibition |
| --- | --- |
| Cc1occc(=O)c1OCc1ccccc1 | inconclusive: -40.9% |
| Cc1ccccc1C1=NCC(=O)N(CC(=O)NCc2ccco2)c2sc3c(c21)CCCC3 | inconclusive: -52% |
| CCn1c2ccccc2c2cc(NC(=O)CSc3nnc(-c4cccc(OC)c4)n3N)ccc21 | inactive: -31.6% |
| COc1ccc(S(=O)(=O)NCc2cc(=O)n(C)c(=O)n2C)cc1F | inconclusive: -54.9% |
| COc1cc([C@H]2Oc3cc([C@H]4Oc5cc(O)cc(O)c5C(=O)[C@@H]4O)ccc3O[C@@H]2CO)ccc1O | inactive: -19.5% |
| CC(=O)Nc1ccc(NC(=O)CN(c2ccc([N+](=O)[O-])cc2)S(=O)(=O)c2ccccc2)cc1 | inconclusive: -40.4% |
| CC(C(=O)Nc1ccc([N+](=O)[O-])cc1)N1CCN(C/C=C/c2ccccc2)CC1 (stereo not given) | inconclusive: -57.5% |
| CCCCCCNC(=O)c1cc(S(=O)(=O)N2CCc3ccccc32)ccc1F | active: -68.6% |
| CCOCc1nnc(NC(=O)C2CCN(C(=O)C3CC(=O)N(c4ccc(C)cc4)C3)CC2)s1 (stereo not given) | inactive: -26.8% |
| CCCCCCCCn1c2c(c(=N)c3ccccc31)CCC2 | active: -97% |
| CC(=O)N1CCc2cc(S(=O)(=O)N3CCc4ccccc43)ccc21 | active: -67.9% |
| Cc1cccc(OCCNC(=O)c2cccc(Oc3ccc(C(F)(F)F)cc3[N+](=O)[O-])c2)c1 | inactive: -30.6% |
| CCCCOc1cc(C(=O)OCCN(CC)CC)ccc1N | inconclusive: -56.2% |
| Cc1ccc(Cl)cc1N1CCN(C(=O)CCS(=O)(=O)c2cccc3nonc23)CC1 | inconclusive: -57% |
| CCOC(=O)c1c(-c2ccccc2)oc2ccc(O)c(CN3CCCC3)c12 | active: -62% |
| O=C1[C@H]2[C@@H]3CCN1CCC[C@@H]2C=C[C@@H]3c1ccc(Br)cc1 | inactive: -20.5% |
| O=C(NCc1ccc(F)cc1)C1CCCN1C(=O)Nc1cccc(F)c1 (stereo not given) | inactive: -21.1% |
| CC(C)c1cc(C(=O)NNC(=S)NCc2ccco2)c(O)c(C(C)C)c1 | inconclusive: -47.4% |
| ClCc1nc2ccccc2n1Cc1ccccc1 | inconclusive: -40.4% |
| Cc1cccc(N(CC(=O)NC(C)C)C(=O)CCC(=O)Nc2nccs2)c1 | inactive: 0.58% |
| COc1ccc(-c2nn(-c3ccccc3)cc2/C=C2/SC(=S)N(Cc3ccco3)C2=O)c(C)c1 | inconclusive: -53.9% |
| COc1cc(C(=O)N2CC(=O)Nc3ccccc32)cc(OC)c1OC | inactive: -16.5% |
| COc1ccc(-n2c(/C=C/c3ccc(O)cc3)nc3ccccc3c2=O)cc1 | inconclusive: -58.2% |
| COc1ccc(C(=O)NCCNc2ccccc2[N+](=O)[O-])cc1 | inactive: 31.2% |
| O=C(CN1CCN(S(=O)(=O)c2ccc(F)cc2)CC1)Nc1ccc2c(c1)OCCO2 | inactive: -12.2% |
| Cc1nc2sc3c(c2c(=O)n1/N=C/c1cccnc1)CCCC3 | inconclusive: -45.5% |
| CC1(c2ccccc2)NC(=O)N(N)C1=O (stereo not given) | inconclusive: -51.3% |
